Results published in the supplement of paper PMC12067093, “Discovery and optimisation of a covalent ligand for TRIM25 and its application to targeted protein ubiquitination” (Chemical Science, 2025).
Some of the results follow.

Protein sequences, listed by entry. Tags and fused reporters are not part of them. Lines headed by an entry give the natural chain unless they say otherwise; changes in a name come on top.
UniProt Q96S97: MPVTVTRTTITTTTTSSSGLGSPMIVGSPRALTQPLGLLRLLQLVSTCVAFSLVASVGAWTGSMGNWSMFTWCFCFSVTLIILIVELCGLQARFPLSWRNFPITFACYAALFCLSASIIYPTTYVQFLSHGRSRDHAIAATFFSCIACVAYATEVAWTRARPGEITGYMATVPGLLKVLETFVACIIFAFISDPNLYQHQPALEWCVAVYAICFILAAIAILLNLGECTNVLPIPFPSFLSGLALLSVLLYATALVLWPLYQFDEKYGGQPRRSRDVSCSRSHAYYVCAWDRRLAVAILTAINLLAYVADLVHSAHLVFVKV
UniProt Q13203: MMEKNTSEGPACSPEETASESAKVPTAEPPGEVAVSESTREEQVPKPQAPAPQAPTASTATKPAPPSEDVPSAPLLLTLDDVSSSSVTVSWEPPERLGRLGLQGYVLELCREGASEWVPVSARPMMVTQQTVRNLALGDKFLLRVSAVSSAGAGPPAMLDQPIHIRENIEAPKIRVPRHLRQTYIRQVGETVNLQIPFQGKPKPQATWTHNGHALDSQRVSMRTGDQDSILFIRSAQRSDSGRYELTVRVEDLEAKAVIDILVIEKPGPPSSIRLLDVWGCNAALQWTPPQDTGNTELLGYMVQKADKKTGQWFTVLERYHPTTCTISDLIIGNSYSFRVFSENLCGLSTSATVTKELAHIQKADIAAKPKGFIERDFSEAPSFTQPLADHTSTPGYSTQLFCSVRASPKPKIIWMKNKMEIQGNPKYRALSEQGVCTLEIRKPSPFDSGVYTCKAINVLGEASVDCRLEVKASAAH
UniProt Q13615: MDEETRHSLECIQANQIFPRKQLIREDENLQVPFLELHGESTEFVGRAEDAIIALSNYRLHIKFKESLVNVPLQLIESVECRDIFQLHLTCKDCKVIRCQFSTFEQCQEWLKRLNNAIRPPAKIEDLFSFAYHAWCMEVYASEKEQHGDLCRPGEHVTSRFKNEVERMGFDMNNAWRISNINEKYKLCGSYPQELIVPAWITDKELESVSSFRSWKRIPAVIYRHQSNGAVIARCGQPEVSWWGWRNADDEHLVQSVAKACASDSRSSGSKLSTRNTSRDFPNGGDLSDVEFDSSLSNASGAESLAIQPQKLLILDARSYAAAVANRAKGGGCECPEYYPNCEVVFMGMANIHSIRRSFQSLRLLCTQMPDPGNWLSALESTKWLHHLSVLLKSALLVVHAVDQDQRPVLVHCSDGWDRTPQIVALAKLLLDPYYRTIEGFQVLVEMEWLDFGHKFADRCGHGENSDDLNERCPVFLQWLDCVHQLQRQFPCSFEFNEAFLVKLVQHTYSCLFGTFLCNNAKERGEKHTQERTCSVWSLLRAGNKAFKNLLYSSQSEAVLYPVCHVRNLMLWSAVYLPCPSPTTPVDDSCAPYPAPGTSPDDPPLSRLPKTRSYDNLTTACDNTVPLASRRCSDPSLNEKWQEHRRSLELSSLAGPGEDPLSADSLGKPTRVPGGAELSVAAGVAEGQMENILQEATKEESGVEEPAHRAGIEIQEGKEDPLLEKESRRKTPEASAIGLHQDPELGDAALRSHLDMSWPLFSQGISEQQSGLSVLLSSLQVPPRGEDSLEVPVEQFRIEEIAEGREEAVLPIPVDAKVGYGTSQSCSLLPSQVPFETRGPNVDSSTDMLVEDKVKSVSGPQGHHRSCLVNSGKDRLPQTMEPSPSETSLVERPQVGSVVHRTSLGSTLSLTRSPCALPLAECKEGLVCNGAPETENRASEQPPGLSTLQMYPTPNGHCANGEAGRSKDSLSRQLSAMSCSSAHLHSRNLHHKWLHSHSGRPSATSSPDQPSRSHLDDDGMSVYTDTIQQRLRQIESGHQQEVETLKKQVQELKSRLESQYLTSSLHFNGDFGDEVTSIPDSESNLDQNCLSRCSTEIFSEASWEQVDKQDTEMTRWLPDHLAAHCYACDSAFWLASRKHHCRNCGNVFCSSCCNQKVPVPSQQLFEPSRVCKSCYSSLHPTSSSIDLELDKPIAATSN
UniProt Q99836, whole entry, looked up: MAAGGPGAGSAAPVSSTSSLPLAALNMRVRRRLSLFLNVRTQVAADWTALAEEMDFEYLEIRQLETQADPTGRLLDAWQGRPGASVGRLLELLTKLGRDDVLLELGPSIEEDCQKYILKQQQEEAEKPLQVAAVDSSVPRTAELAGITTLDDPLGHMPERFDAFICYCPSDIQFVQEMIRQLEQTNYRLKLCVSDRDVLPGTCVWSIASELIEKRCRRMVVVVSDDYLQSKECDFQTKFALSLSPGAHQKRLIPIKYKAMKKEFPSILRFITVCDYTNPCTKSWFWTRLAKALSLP
UniProt P0C860: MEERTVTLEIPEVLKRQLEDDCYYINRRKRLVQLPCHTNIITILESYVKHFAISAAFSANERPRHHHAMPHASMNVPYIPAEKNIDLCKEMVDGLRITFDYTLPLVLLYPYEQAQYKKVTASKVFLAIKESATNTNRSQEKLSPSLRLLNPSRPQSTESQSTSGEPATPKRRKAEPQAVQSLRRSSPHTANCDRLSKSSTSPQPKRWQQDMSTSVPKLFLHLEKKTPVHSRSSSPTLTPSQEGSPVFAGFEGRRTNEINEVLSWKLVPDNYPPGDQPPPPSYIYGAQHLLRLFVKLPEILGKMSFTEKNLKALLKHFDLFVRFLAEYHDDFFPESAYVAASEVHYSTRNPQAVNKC
UniProt Q9BUK6: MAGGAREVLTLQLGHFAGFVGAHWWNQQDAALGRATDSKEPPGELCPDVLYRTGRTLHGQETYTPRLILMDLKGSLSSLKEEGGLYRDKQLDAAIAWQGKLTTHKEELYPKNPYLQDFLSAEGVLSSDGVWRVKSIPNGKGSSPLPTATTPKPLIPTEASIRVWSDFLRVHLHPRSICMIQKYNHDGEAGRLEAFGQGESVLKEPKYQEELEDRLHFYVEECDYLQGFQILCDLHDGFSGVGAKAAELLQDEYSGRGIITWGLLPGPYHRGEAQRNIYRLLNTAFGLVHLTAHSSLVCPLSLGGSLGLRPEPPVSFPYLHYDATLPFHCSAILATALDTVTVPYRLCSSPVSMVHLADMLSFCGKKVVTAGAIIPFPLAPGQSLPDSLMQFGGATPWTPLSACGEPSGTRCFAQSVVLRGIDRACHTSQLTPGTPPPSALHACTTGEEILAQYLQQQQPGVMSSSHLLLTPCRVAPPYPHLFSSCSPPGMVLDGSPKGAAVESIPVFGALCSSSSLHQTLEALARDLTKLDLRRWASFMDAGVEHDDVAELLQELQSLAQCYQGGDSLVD
UniProt P35580, whole entry, looked up: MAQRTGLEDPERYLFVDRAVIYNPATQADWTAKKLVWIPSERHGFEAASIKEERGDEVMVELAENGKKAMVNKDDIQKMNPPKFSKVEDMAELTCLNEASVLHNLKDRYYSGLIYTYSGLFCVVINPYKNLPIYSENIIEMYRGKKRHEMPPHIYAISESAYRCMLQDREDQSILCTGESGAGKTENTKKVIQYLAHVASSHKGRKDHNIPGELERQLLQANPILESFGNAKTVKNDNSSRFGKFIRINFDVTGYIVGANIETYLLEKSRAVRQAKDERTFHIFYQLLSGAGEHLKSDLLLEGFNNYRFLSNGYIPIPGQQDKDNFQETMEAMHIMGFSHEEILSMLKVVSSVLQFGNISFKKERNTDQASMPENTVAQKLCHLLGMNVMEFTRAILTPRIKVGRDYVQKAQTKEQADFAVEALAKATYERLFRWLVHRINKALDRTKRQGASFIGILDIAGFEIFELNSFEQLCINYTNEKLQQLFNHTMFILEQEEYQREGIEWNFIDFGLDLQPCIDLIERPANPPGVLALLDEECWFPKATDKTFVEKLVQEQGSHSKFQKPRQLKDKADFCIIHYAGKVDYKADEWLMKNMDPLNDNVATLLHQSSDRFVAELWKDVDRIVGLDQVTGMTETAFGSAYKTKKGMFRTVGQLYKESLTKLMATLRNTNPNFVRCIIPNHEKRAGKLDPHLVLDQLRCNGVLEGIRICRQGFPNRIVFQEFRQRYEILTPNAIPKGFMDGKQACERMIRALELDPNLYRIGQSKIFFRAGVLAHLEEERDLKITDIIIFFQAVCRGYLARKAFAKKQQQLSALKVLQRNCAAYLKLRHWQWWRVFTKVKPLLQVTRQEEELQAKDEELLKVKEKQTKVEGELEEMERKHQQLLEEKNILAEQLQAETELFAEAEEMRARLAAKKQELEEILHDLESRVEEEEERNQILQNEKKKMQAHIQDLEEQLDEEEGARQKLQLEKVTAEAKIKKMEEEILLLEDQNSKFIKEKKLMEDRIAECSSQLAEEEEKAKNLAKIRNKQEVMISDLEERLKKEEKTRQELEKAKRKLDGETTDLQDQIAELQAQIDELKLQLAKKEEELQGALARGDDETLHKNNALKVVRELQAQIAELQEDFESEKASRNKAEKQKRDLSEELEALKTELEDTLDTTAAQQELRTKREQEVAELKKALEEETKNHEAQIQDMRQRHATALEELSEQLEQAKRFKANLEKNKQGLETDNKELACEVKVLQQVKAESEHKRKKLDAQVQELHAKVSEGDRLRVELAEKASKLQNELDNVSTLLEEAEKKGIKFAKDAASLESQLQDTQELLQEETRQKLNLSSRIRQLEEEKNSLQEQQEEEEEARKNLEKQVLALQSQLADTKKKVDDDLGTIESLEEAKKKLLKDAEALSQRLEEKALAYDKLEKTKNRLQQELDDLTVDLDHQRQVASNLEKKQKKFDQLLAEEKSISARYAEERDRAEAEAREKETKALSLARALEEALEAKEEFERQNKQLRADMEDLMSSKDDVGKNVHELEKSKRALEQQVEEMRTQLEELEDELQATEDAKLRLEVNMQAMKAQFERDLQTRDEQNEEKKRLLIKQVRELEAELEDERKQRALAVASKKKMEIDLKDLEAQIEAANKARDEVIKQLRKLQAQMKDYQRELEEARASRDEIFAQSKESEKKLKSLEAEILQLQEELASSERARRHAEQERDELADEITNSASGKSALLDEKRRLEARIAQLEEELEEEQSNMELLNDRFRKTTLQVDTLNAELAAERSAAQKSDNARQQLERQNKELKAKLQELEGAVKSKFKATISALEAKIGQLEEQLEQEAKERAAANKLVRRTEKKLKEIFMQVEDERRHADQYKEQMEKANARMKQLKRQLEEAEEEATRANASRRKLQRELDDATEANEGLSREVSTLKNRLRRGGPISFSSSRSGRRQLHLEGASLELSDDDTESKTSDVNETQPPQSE
UniProt Q6UB35, whole entry, looked up: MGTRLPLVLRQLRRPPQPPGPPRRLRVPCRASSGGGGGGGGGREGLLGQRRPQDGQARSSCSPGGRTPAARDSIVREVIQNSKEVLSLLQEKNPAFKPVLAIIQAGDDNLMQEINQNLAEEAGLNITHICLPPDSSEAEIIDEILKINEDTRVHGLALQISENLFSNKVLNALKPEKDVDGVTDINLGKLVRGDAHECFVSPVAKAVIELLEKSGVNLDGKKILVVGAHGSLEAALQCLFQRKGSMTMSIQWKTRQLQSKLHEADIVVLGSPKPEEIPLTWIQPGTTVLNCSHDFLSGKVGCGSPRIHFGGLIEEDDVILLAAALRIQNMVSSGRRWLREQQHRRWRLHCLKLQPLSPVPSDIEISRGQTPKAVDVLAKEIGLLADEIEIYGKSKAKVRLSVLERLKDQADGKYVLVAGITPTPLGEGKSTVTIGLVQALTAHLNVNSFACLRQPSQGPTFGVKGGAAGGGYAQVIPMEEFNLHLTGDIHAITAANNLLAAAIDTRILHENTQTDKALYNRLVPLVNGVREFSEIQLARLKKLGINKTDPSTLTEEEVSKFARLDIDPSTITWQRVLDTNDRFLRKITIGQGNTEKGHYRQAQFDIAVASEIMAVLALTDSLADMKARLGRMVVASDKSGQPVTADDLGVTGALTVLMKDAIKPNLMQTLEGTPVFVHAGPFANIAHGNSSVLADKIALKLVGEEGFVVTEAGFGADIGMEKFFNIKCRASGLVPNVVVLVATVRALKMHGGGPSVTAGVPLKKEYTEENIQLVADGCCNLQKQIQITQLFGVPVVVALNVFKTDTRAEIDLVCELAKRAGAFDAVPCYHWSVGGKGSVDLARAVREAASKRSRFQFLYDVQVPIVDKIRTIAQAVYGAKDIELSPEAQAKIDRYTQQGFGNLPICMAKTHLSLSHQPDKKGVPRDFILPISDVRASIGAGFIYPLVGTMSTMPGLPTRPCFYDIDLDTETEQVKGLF
UniProt Q2M296: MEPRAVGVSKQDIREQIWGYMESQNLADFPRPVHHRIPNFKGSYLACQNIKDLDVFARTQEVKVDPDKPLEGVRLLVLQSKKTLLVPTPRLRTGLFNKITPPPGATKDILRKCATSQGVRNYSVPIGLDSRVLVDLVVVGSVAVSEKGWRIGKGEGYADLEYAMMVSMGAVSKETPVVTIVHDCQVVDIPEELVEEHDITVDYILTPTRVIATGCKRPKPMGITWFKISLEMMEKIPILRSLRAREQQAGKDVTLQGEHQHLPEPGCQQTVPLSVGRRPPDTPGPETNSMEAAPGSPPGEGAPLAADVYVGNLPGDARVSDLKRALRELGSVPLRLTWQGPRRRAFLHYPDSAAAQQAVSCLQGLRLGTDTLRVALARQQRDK

The targets below were run with Cc1cc(ccc1-c1ccccc1)C(=O)N1CCCN(CC1)C(=O)CCl [compound 10] (assay: probe-labelled cysteine peptide fold change vs DMSO (competition) (log2 fold change); higher = less target engagement (more negative = stronger competition)). Settings: 10 µM; THP-1; incubation time: 4 h.
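Note: competitive profiling in live THP-1 cells: cysteine peptides tagged with an iodoacetamide desthiobiotin (IA-DTB) probe, intensity after compound treatment relative to DMSO-treated cells.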

Target	probe-labelled cysteine peptide fold change
MTR_Q99707_1153_ELWAYCGSEQLDVADLRR (UniProt Q99707)	-0.0511
MYADM_Q96S97_279_SRDVSCSR (UniProt Q96S97)	1.07
MYBPH_Q13203_437_ALSEQGVCTLEIR (UniProt Q13203)	-0.0897
MUT_P22033_433_VADPWGGSYMMECLTNDVYDAALK (UniProt P22033)	0.174
MYH9_P35579_1379_MEDSVGCLETAEEVKR (UniProt P35579)	0.0621
MTREX_P42285_983_LEIDEETYLSSFKPHLMDVVYTWATGATFAHICK (UniProt P42285)	0.247
MYCBP2_O75592_3364_ANALFLLSLSSAAEPSILCYHPAK (UniProt O75592)	-0.123
MTMR3_Q13615_188_LCGSYPQELIVPAWITDK (UniProt Q13615)	0.117
MYD88_Q99836_203_LCVSDRDVLPGTCVWSIASELIEK (UniProt Q99836)	0.307
MYCBP2_O75592_4409_NEEHCLPCLHGCDK (UniProt O75592)	0.00756
MX2_P20592_407_CGADIPSQEADK (UniProt P20592)	-0.1
MSL3P1_P0C860_283_SSPHTANCDR (UniProt P0C860)	-0.254
MTCH1_Q9NZJ7_222_CMVQFVGR (UniProt Q9NZJ7)	0.164
MTHFD1_P11586_326_SCKPKPIGK (UniProt P11586)	-0.217
MSH6_P52701_108_MEGYPWWPCLVYNHPFDGTFIR (UniProt P52701)	0.184
MTHFD1_P11586_691_YSGLCPHVVVLVATVR (UniProt P11586)	-0.297
MSTO1_Q9BUK6_347_LCSSPVSMVHLADMLSFCGK (UniProt Q9BUK6)	0.0999
MSH6_P52701_1337_EVCLASER (UniProt P52701)	0.107

Target	probe-labelled cysteine peptide fold change
MTMR1_Q13613_258_INSNYEFCDTYPAIIVVPTSVK (UniProt Q13613)	-0.0841
MYH10_P35580_176_CMLQDREDQSILCTGESGAGK (UniProt P35580)	-0.0995
MTF2_Q9Y483_219_MLQCCK (UniProt Q9Y483)	0.0379
MTHFD1L_Q6UB35_906_IDRYTQQGFGNLPICMAK (UniProt Q6UB35)	-0.017
MYH9_P35579_172_SMMQDREDQSILCTGESGAGK (UniProt P35579)	-0.173
MRPS24_Q96EL2_103_FMWGTFPGCLADQLVLK (UniProt Q96EL2)	0.151
MTR_Q99707_812_VIDLGVMTPCDK (UniProt Q99707)	-0.219
MTHFD1_P11586_863_QGFGNLPICMAK (UniProt P11586)	-0.0793
MUT_P22033_560_CTVGEITDALK (UniProt P22033)	0.0307
MTHFSD_Q2M296_267_DVTLQGEHQHLPEPGCQQTVPLSVGR (UniProt Q2M296)	-0.222
MTHFD1_P11586_236_GEWIKPGAIVIDCGINYVPDDK (UniProt P11586)	0.183
MYH9_P35579_671_CIIPNHEKK (UniProt P35579)	-0.188
MYBBP1A_Q9BQG0_305_MQFWPASYLCFR (UniProt Q9BQG0)	-0.0172
MSH6_P52701_615_SSLSCSLQEGLIPGSQFWDASK (UniProt P52701)	-0.337
MSTO1_Q9BUK6_178_SICMIQK (UniProt Q9BUK6)	0.0166
MYCBP2_O75592_3263_QAHPGCGR (UniProt O75592)	0.0855
MYCBP2_O75592_4638_EELPHCPAGPK (UniProt O75592)	-0.0986
MYBL2_P10244_147_SCWTEEEDRIICEAHK (UniProt P10244)	0.166

Same assay, conditions: 50 µM; THP-1; incubation time: 4 h

Target	probe-labelled cysteine peptide fold change
MTR_Q99707_1153_ELWAYCGSEQLDVADLRR (UniProt Q99707)	-0.000183
MYADM_Q96S97_279_SRDVSCSR (UniProt Q96S97)	1.22
MYBPH_Q13203_437_ALSEQGVCTLEIR (UniProt Q13203)	0.208
MUT_P22033_433_VADPWGGSYMMECLTNDVYDAALK (UniProt P22033)	0.0326
MYH9_P35579_1379_MEDSVGCLETAEEVKR (UniProt P35579)	-0.256
MTREX_P42285_983_LEIDEETYLSSFKPHLMDVVYTWATGATFAHICK (UniProt P42285)	0.166
MYCBP2_O75592_3364_ANALFLLSLSSAAEPSILCYHPAK (UniProt O75592)	-0.248
MTMR3_Q13615_188_LCGSYPQELIVPAWITDK (UniProt Q13615)	0.105
MYD88_Q99836_203_LCVSDRDVLPGTCVWSIASELIEK (UniProt Q99836)	-0.566
MYCBP2_O75592_4409_NEEHCLPCLHGCDK (UniProt O75592)	-0.0673
MX2_P20592_407_CGADIPSQEADK (UniProt P20592)	0.0329
MSL3P1_P0C860_283_SSPHTANCDR (UniProt P0C860)	-0.68
MTCH1_Q9NZJ7_222_CMVQFVGR (UniProt Q9NZJ7)	-0.0167
MTHFD1_P11586_326_SCKPKPIGK (UniProt P11586)	-1
MSH6_P52701_108_MEGYPWWPCLVYNHPFDGTFIR (UniProt P52701)	0.261
MTHFD1_P11586_691_YSGLCPHVVVLVATVR (UniProt P11586)	-0.11
MSTO1_Q9BUK6_347_LCSSPVSMVHLADMLSFCGK (UniProt Q9BUK6)	0.248
MSH6_P52701_1337_EVCLASER (UniProt P52701)	0.139

Target	probe-labelled cysteine peptide fold change
MTMR1_Q13613_258_INSNYEFCDTYPAIIVVPTSVK (UniProt Q13613)	0.506
MYH10_P35580_176_CMLQDREDQSILCTGESGAGK (UniProt P35580)	0.342
MTF2_Q9Y483_219_MLQCCK (UniProt Q9Y483)	-0.212
MTHFD1L_Q6UB35_906_IDRYTQQGFGNLPICMAK (UniProt Q6UB35)	-0.37
MYH9_P35579_172_SMMQDREDQSILCTGESGAGK (UniProt P35579)	-0.145
MRPS24_Q96EL2_103_FMWGTFPGCLADQLVLK (UniProt Q96EL2)	0.0724
MTR_Q99707_812_VIDLGVMTPCDK (UniProt Q99707)	-0.788
MTHFD1_P11586_863_QGFGNLPICMAK (UniProt P11586)	-0.213
MUT_P22033_560_CTVGEITDALK (UniProt P22033)	0.0797
MTHFSD_Q2M296_267_DVTLQGEHQHLPEPGCQQTVPLSVGR (UniProt Q2M296)	-0.305
MTHFD1_P11586_236_GEWIKPGAIVIDCGINYVPDDK (UniProt P11586)	0.298
MYH9_P35579_671_CIIPNHEKK (UniProt P35579)	-1.18
MYBBP1A_Q9BQG0_305_MQFWPASYLCFR (UniProt Q9BQG0)	0.914
MSH6_P52701_615_SSLSCSLQEGLIPGSQFWDASK (UniProt P52701)	-0.752
MSTO1_Q9BUK6_178_SICMIQK (UniProt Q9BUK6)	-0.244
MYCBP2_O75592_3263_QAHPGCGR (UniProt O75592)	0.00399
MYCBP2_O75592_4638_EELPHCPAGPK (UniProt O75592)	-0.513
MYBL2_P10244_147_SCWTEEEDRIICEAHK (UniProt P10244)	-0.335
